This is one part of the list. Shown are side measurements of this screen, not its main read-out; they come without a call. The list favours compounds with an active or inconclusive main result. Potencies come from curve fits of mixed quality, noted in brackets.
Assay: Cell signaling CRE-BLA (Fsk stim)
Conditions: CHO CRE-bla reporter (cAMP response element driving beta-lactamase), forskolin EC10, beta-lactamase ratio; measured here: 460 nm blue channel
How it was run: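 CRE-bla CHO cells stimulated with EC10 NKH 477 (water-soluble forskolin) and compound titrations, 3 h at 37C; beta-lactamase read with CCF4 after 2 h at room temperature. Activity from 460/530 nm emission ratio, AC50 values for positive or negative modulation.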

Row | SMILES | AC50
1 | Cc1cccc(CNc2cc(-c3cccc(NS(C)(=O)=O)c3)ncn2)c1 | 3.16 µM [rising, full curve]
2 | CCCCOc1ccc(-c2nnn(CCC(=O)N3CCOCC3)n2)cc1 | 10 µM [rising, single point]
3 | CSC1=NC(NCCCO)c2c(sc3c2CC(C)(C)OC3)N1 (configuration not stated) | 12.6 µM [rising, partial curve]
4 | Cc1ccc(C)c(Cn2nnc3c(=O)[nH]c(C4CCCN(C(=O)C5CCCCC5)C4)nc32)c1 (configuration not stated) | 15.8 µM [rising, single point]
5 | COC(=O)c1cc2oc3ccccc3c2n1Cc1ccccn1 | 25.1 µM [rising, single point]
6 | CCn1nc(NC(=O)c2ccncc2)c2cc3cccc(C)c3nc21 | 2.51 µM [rising, full curve]
7 | N#C/C(=C\c1ccc(O)c(O)c1)C(N)=O | 31.6 µM [rising, single point]
8 | Cn1c(=O)n(Cc2ccccc2)c(=O)c2c1nc1n2CCS1 | 12.6 µM [rising, partial curve]
9 | CC(=O)NC(CCS(C)(=O)=O)C(=O)Nc1nccs1 (configuration not stated) | 2.51 µM [falling, partial curve]
10 | CCOC(=O)C(C(C)=O)c1nc(C)nc2c1nnn2Cc1ccccc1Cl (configuration not stated) | 10 µM [rising, partial curve]
11 | c1ccc(CCc2nn3c(Cn4nnc5ccccc54)nnc3s2)cc1 | 10 µM [rising, single point]
12 | CCc1ccc2oc(=O)cc(CN3CCN(CCO)CC3)c2c1 | 1 µM [rising, single point]
13 | OCCN1CCN(c2nc(-c3ccccc3)nc3c2oc2ccccc23)CC1 | 10 µM [rising, single point]
14 | C=CCc1cccc2cc(C(=O)N(C)C)c(=O)oc12 | 0.01 µM [falling, full curve, poor fit]
15 | Cc1nnc(SCC(=O)NC(C)(C)C)n1CCc1ccccc1 | 5.01 µM [falling, single point]
16 | O=c1c(-c2ccc(Cl)cc2)nc2cnc(N3CCOCC3)nc2n1C1CC1 | 15.8 µM [rising, partial curve]
17 | COc1ccc(C(=O)Nc2ccc(Cl)cc2C(=O)NCc2ccco2)cc1OC | 12.6 µM [rising, single point]
18 | O=C(CSc1nc2c(c(=O)n1-c1ccc(Cl)cc1)SCC2)Nc1ccc2c(c1)OCCO2 | 10 µM [falling, single point]
19 | CC(C)CCNC(=O)NC(=O)CSc1nnc(-c2ccccc2F)n1N | 5.01 µM [falling, single point]
20 | CCCN1Cc2cccc(C(=O)Nc3ccc(N4CCN(CC)CC4)cc3)c2C1=O | 3.98 µM [rising, single point]
21 | Cc1ccc(OCCN2CCN(C(=O)CCC(=O)Nc3nnc(C)s3)CC2)cc1 | 10 µM [rising, partial curve]

Row | SMILES | AC50
22 | Cn1c(C(=O)NCCCN2CCN(c3ccccc3F)CC2)cc2c(=O)n(C)c3ccccc3c21 | 3.16 µM [rising, full curve]
23 | COc1ccc(-n2c(=O)cc(N3CCCCCC3)[nH]c2=O)cc1 | 25.1 µM [rising, single point]
24 | CCS(=O)(=O)N1CCC(C(=O)NCCCN2CCC(Cc3ccccc3)CC2)CC1 | 0.00794 µM [falling, full curve, poor fit]
25 | CCOC(=O)c1sc2ncn(C(CC)C(=O)OCC)c(=O)c2c1C (configuration not stated) | 15.8 µM [rising, single point]
26 | COc1ccc(Cn2nnnc2C(CC(C)C)N2CCN(c3ccccc3)CC2)cc1 (configuration not stated) | 0.00316 µM [falling, full curve, poor fit]
27 | Cc1c(C)c2cc(Cl)c(O)c(CN(C)C)c2oc1=O | 10 µM [rising, partial curve]
28 | COC(=O)c1cn(NC(=O)C2CCCO2)c(=O)c2ccccc12 (configuration not stated) | 6.31 µM [falling, partial curve]
29 | CCC1CCCCN1Cc1nc2c(c(=O)n(C)c(=O)n2C)n1CCC(C)C (configuration not stated) | 15.8 µM [rising, partial curve]
30 | COc1ccc(CCn2c(N)cc(=O)[nH]c2=S)cc1OC | 12.6 µM [rising, partial curve]
31 | CCOC(=O)N1CCN(C(=O)c2ccc3c(=O)n(Cc4ccccc4)c(=S)[nH]c3c2)CC1 | 1 µM [falling, partial curve]
32 | CCNc1ncc2nc(C)c(=O)n(Cc3cccs3)c2n1 | 12.6 µM [rising, partial curve]
33 | COc1ccc(S(=O)(=O)N2C3CCC2CC(NC(=O)C2CC2)C3)cc1 (configuration not stated) | 2.51 µM [falling, partial curve, poor fit]
34 | Fc1ccc2c(c1)[C@H]1OCC[C@H]1[C@@H](c1ccco1)N2 | 15.8 µM [rising, single point]
35 | Nc1cc2c(nc3c4ccccc4c(N)cc3[n+]2-c2cccc3ccccc23)c2ccccc12 (tested in a mixture with another compound) | 0.002 µM [falling, full curve, poor fit]
36 | COc1ccc2c(=O)c3c(=O)n(Cc4ccco4)c(-c4cc(OC)c(OC)c(OC)c4)nc3oc2c1 | 2.51 µM [rising, partial curve]
37 | CCOc1ccc(N(CC(=O)NC(C)(C)C)C(=O)c2ccco2)cc1 | 0.126 µM [falling, full curve, poor fit]
38 | COc1cc(/C=C\C(=O)N2CCC=CC2=O)cc(OC)c1OC | 7.94 µM [falling, partial curve]
39 | COCCCNC(=O)C1CCN(C(=O)c2cc3sccc3n2Cc2ccc(F)cc2)CC1 | 0.251 µM [rising, single point]
40 | CCc1nc(N2CCCCC2)c2oc3ccccc3c2n1 | 10 µM [rising, partial curve]
41 | CCOC(=O)C1=C(C)NC2=C(C(=O)CCC2)C1c1cccnc1 (configuration not stated) | 25.1 µM [rising, single point]
42 | COc1ccc(NC(=O)c2ccc3c(=O)n(Cc4ccco4)c(=S)[nH]c3c2)c(OC)c1 | 25.1 µM [rising, single point]

Part of the list above, comma-delimited.
Row,SMILES,AC50
22,Cn1c(C(=O)NCCCN2CCN(c3ccccc3F)CC2)cc2c(=O)n(C)c3ccccc3c21,"3.16 µM [rising, full curve]"
39,COCCCNC(=O)C1CCN(C(=O)c2cc3sccc3n2Cc2ccc(F)cc2)CC1,"0.251 µM [rising, single point]"

Reference: PubChem BioAssay AID662 (National Center for Advancing Translational Sciences (NCATS), 2007)
